Data published in patent US6555676B2, “Biologically active phosphotriester-type compounds” (Centre National de la Recherche Scientifique, priority 1992, dated 2003).
At least one structure is not confirmed: it was looked up by name or label, or the drawing left a doubt.

Tested on: non-infected MT-4 cells
Assay: Toxic effect on non-infected cells (MTT/formazan), MT-4
Assay type: cell-based, Human
Settings: 50% inhibition of formazan formation

With `CC(=O)SCCOP(=O)(OCCSC(C)=O)OC[C@H]1O[C@@H](n2cc(C)c(=O)[nH]c2=O)C[C@@H]1N=[N+]=[N-]` [Bis(SATE)AZTMP, O-(2′,3′-Dideoxy-3′-azidothymidin-5′-yl)-O,O′-bis(S-acetyl-2-thioethyl)phosphate] the CD50 was “(CD50 7.6 10^−5 M)”.
